{
  "source": "patent US9732131B2",
  "about": "“Identification and use of novopeptides for the treatment of cancer” (Calviri Inc., priority 2006, dated 2017)",
  "key": {"[1]": {"test_system": "human tumor cell lines (MCF-7, SW480, DU-145) vs normal lung, breast, colon cDNA", "assay": "PCR and inspection of electrophoresis gel band intensities, tumor vs normal cDNA", "conditions": "for RNA expression in tumor cells versus normal cells: PCR and inspection of electrophoresis gel band intensities; for amplification of FS variant cDNA: MCF-7, SW480, DU-145 tumor lines vs normal lung, breast, colon (FIGS. 7a-7c)"}, "[2]": {"test_system": "Tubo tumor, a mouse breast cancer cell line", "assay": "RT-PCR confirmation of FS sequence in cDNA of Tubo tumor"}, "[3]": {"test_system": "human pancreas tumor samples", "assay": "Quantitative PCR of FS SMC-1A in fresh pancreas tumor samples"}, "[4]": {"test_system": "tumor vs. normal cells", "assay": "RNA expression ratio of the FS variant in tumor vs. normal cells", "set-up": "species or system human", "conditions": "for RNA expression ratio: tumor vs normal cells; for RNA (expression ratio of the FS variant in tumor vs. normal cells): Table 2b"}, "[5]": {"test_system": "tumor cells", "assay": "RNA extraction and sequencing to verify FS variant expression in tumor cells", "set-up": "species or system human"}},
  "note": "For some assays here: What was measured is the transcript of the gene that encodes the chain shown.",
  "data": [
    {"substance": "RMLGPRPPRAARFR (Synthetic or recombinant sequence) [MAP3K10]", "values": [
      {"measurement": "RNA expression in tumor cells versus normal cells", "setting": "[1]", "value": "exceeding that in normal cells"}
    ]},
    {"substance": "FS RBM: mouse novopeptide whose upstream in-frame portion aligns with the mouse Rbm14 gene (GRVIECDVVKGSCQDGEAVHWKSAPGGHRAGDPLTLRAVREGAGM; Synthetic or recombinant sequence)", "values": [
      {"measurement": "presence of sequence in cDNA of Tubo tumor", "setting": "[2]", "value": "confirmed by RT-PCR"}
    ]},
    {"substance": "NGSGCSGVYCHEEPQGEDSSV [FS SMC-1A, novopeptide from a frameshift of the SMC1A gene]", "values": [
      {"measurement": "pancreas tumors overexpressing the FS compared to normal wild type sequence", "setting": "[3]; four fresh human pancreas tumor samples", "value": "three of four"},
      {"measurement": "Relative Expression Level", "setting": "[3]; sample Panc-C", "value": 2.69},
      {"measurement": "Relative Expression Level", "setting": "[3]; sample Panc-E", "value": 30.7},
      {"measurement": "Relative Expression Level", "setting": "[3]; sample Panc-F", "value": 1.15},
      {"measurement": "Relative Expression Level", "setting": "[3]; sample Panc-G", "value": 0.512}
    ]},
    {"substance": "ARRG (Synthetic or recombinant sequence) [C7orf24]", "values": [
      {"measurement": "RNA expression ratio", "setting": "[4]", "value": 3.6, "unit": "×"}
    ]},
    {"substance": "GTGCISAIPH (Synthetic or recombinant sequence) [STYXL1]", "values": [
      {"measurement": "RNA expression ratio", "setting": "[4]", "value": 2.0, "unit": "×"},
      {"measurement": "amplification of FS variant cDNA", "setting": "[1]", "value": "present in tumor cells, but not present in cDNA from normal lung, breast and colon"},
      {"measurement": "expression of the FS variant in tumor cells", "setting": "[5]", "value": "verified"}
    ]},
    {"substance": "CPAEIK (Synthetic or recombinant sequence) [ZWILCH]", "values": [
      {"measurement": "RNA expression ratio", "setting": "[4]", "value": 10.4, "unit": "×"},
      {"measurement": "expression of the FS variant in tumor cells", "setting": "[5]", "value": "confirmed"}
    ]},
    {"substance": "QFWCLWFCYDKCFWN (Synthetic or recombinant sequence) [BCL2L13]", "values": [
      {"measurement": "amplification of FS variant cDNA", "setting": "[1]", "value": "from three different human tumor cell lines, but not cDNA obtained from normal tissue"},
      {"measurement": "RNA expression in tumor cells versus normal cells", "setting": "[1]", "value": "exceeding that in normal cells"}
    ]},
    {"substance": "MPWTILPGRTNSTIPKSSNKKTSQATRGDHWKWSSSRPIVQK (Synthetic or recombinant sequence) [HNRPUL1]", "values": [
      {"measurement": "amplification of FS variant cDNA", "setting": "[1]", "value": "present in tumor cells, but not present in cDNA from normal lung, breast and colon"},
      {"measurement": "RNA expression in tumor cells versus normal cells", "setting": "[1]", "value": "exceeding that in normal cells"},
      {"measurement": "expression of the FS variant in tumor cells", "setting": "[5]", "value": "confirmed"}
    ]},
    {"substance": "GCCGIYCHEEPQREDSSI (Synthetic or recombinant sequence) [SMC1L1]", "values": [
      {"measurement": "RNA (expression ratio of the FS variant in tumor vs. normal cells)", "setting": "[4]", "value": 98, "unit": "X"}
    ]},
    {"substance": "IFP (SANRWEQVIFP; Synthetic or recombinant sequence) [DTYMK]", "values": [
      {"measurement": "RNA expression in tumor cells versus normal cells", "setting": "[1]", "value": "exceeding that in normal cells"},
      {"measurement": "expression of the FS variant in tumor cells", "setting": "[5]", "value": "confirmed"}
    ]},
    {"substance": "NPCQLLKPMVA (Synthetic or recombinant sequence) [KIAA1458]", "values": [
      {"measurement": "RNA (expression ratio of the FS variant in tumor vs. normal cells)", "setting": "[4]", "value": 6.3, "unit": "X"}
    ]},
    {"substance": "RCAATSMDNSMTSKSCSE (Synthetic or recombinant sequence) [PPP4C]", "values": [
      {"measurement": "RNA expression in tumor cells versus normal cells", "setting": "[1]", "value": "exceeding that in normal cells"}
    ]},
    {"substance": "SAHKESSFDIICQV (Synthetic or recombinant sequence) [CIAPIN1]", "values": [
      {"measurement": "RNA expression ratio", "setting": "[4]", "value": 2.6, "unit": "×"}
    ]},
    {"substance": "PWMCKKYYRLL (Synthetic or recombinant sequence) [HIP 14]", "values": [
      {"measurement": "RNA (expression ratio of the FS variant in tumor vs. normal cells)", "setting": "[4]", "value": 4, "unit": "X"}
    ]},
    {"substance": "RKLNILMLLGH (chain 1 HIHTPLLDRKLNILMLLGH; Synthetic or recombinant sequence) [RIPK2]", "values": [
      {"measurement": "RNA expression in tumor cells versus normal cells", "setting": "[1]", "value": "exceeding that in normal cells"},
      {"measurement": "expression of the FS variant in tumor cells", "setting": "[5]", "value": "confirmed"}
    ]},
    {"substance": "RGPL (Synthetic or recombinant sequence) [COPS6]", "values": [
      {"measurement": "RNA (expression ratio of the FS variant in tumor vs. normal cells)", "setting": "[4]", "value": 9.75, "unit": "X"}
    ]},
    {"substance": "FS THAP2: mouse novopeptide whose upstream in-frame portion aligns with the mouse Thap2 gene (FDFCTHIKSLVTFGLFLRGAGCSPSSFLL; Synthetic or recombinant sequence)", "values": [
      {"measurement": "presence of sequence in cDNA of Tubo tumor", "setting": "[2]", "value": "confirmed by RT-PCR"}
    ]},
    {"substance": "SCWWMPSLLPNIYVLDRLLVHA TKRGEYEPRK (SCWWMPSLLPNIYVLDRLLVHATKRGEYEPRK) [MTCH2]", "values": [
      {"measurement": "RNA (expression ratio of the FS variant in tumor vs. normal cells)", "setting": "[4]", "value": 2.2, "unit": "X"}
    ]},
    {"substance": "GWLQ (Synthetic or recombinant sequence) [DNPEP]", "values": [
      {"measurement": "RNA expression in tumor cells versus normal cells", "setting": "[1]", "value": "exceeding that in normal cells"},
      {"measurement": "expression of the FS variant in tumor cells", "setting": "[5]", "value": "verified"}
    ]},
    {"substance": "NGSGKSNVMDALSFVMGEKIAN (Synthetic or recombinant sequence) [WT SMC-1A, reference compound]", "values": [
      {"measurement": "Relative Expression Level", "setting": "[3]; sample Panc-C", "value": 0.094},
      {"measurement": "Relative Expression Level", "setting": "[3]; sample Panc-E", "value": 0.852},
      {"measurement": "Relative Expression Level", "setting": "[3]; sample Panc-F", "value": 0.26},
      {"measurement": "Relative Expression Level", "setting": "[3]; sample Panc-G", "value": 0.696}
    ]},
    {"substance": "IPKVFLKI (chain 1 EQLACIMEIPKVFLKI; Synthetic or recombinant sequence) [DYRK4]", "values": [
      {"measurement": "RNA expression in tumor cells versus normal cells", "setting": "[1]", "value": "exceeding that in normal cells"},
      {"measurement": "expression of the FS variant in tumor cells", "setting": "[5]", "value": "confirmed"}
    ]}
  ]
}
